Source: patent US6124334A, “Hetero-aromatic ring substituted phenyloxazolidinone antimicrobials” (Pharmacia & Upjohn Company, priority 1998, dated 2000)
≈ marks a conversion by molar mass, not a printed value.

System: S. aureus, UC ®9213
Experiment: In vitro MIC by agar dilution, S. aureus
Assay type: cell-based
Settings: Staphylococcus aureus, UC9213, read-out: In vitro Activities: Minimum Inhibitory Concentrations, S. aureus, UC 9213
Description: The oxazolidinone antibacterial agents of this invention have useful activity against a variety of organisms. The in vitro activity of compounds of this invention can be assessed by standard testing procedures such as the determination of minimum inhibitory concentration (MIC) by agar dilution as desribed in "Methods for Dilution Antimicrobial Susceptibility Tests for Bacteria That Grow Aerobically" (MFT) published January 1983 by the National Committee for Clinical Laboratory Standards, 771 East Lancaster Avenue, Villanova, Pa. 19084, USA. The activity of selected compounds of this invention against Staphylococcus aureus and Streptococcus pneumoniae are shown in Table 1.

## CN[C@H](CC(C)C)C(=O)N[C@H]1C(=O)N[C@@H](CC(N)=O)C(=O)N[C@H]2C(=O)N[C@H]3C(=O)N[C@H](C(=O)N[C@H](C(=O)O)c4cc(O)cc(O)c4-c4cc3ccc4O)[C@H](O)c3ccc(c(Cl)c3)Oc3cc2cc(c3O[C@@H]2O[C@H](CO)[C@@H](O)[C@H](O)[C@H]2O[C@H]2C[C@](C)(N)[C@H](O)[C@H](C)O2)Oc2ccc(cc2Cl)[C@H]1O [Vancomycin]
  MIC: 1 µg/mL (≈ 0.69 µM)
